# Test results reported in the supplement of paper PMC8728848.
# The list shows a part of the results.
# B1: Awp1 (Candida glabrata) (protein)
# chain: MSLITIFAFLIKATLVLSLDILTPTTLTGDQTFNEDVSVVSSLTLNDGSQYLFNNLLQIAPSSASVTANALAAVSVFTFSLPPSSSLSNSGTLIISNSNTGPSTEQHIVITPNVMANTGTITLSLAHTNTDSSSTLIIDPVTFYNTGTINYESIGSETNDPSLTGNILSIGSSGRTLQNLGTINLNAANSYYLLGTITENSGSINVQKGFLYVNALDFIGNTINLSTTTALAFISPVSQVVRVRGVFFGNIIASVGSSGTFSYNTQTGILTVTTNGVYSYDIGCGYNPALMSGQQETLSFQGNPYDTFLVLVNQPIPSDLTCAAVSSSITPSSSVEPSSSVVPSSSVEPSSSVEPSSSVEPSSSVEPSSSVEPSSSVEPSSSVEPSSSVEPSSSVEPSSSVEPSSSVEPSSSVEPSSSVEPSSSVEPSSSVEPSSSVEPSSSVEPSSSVEPSSSVEPSSLIVPSSSVEPSSSVLPSSSVVPSSSVEPSTPPIPSSSVEPSSSVVPSSPAVPSSSVEPSTPPIPSSSVVSASVFDTSSTLPSSPSVPPSSVSPSTISTPSSSAAPSSFCPTCVSSGTPPAPSSSAIVPTSSAGGGNGGDNREPGAAGQPGAAGQPGAAGQPGAAGQPGAAGQPGAAGQPGAAGQPGAAGQPGAAGQPGAAGQPGAGFGVGSEQPTPGAGAGSGSADGNQSGTGSGTGNGQQGSGQAGSGQAGSGQEGSGQAGSGQAGSGQAGSGQAGSGQAGLDNTASGQSEGGQASAMDGDQSGRDGQSNSGSLLQPNAQQGTGSGTGSDIGADQASGESPGQIGDAQPGSGTDQSSGRHSLAAEARTSQSHSLAADARTRSTTRQTSVIAPDTAPGTASGTAPGTAPGTAVVTTFHGCGTVNHKGMINILLALALLVLL
# What was measured:
# Experiment in all cases: glycan array binding signal (z-score within array); higher = stronger binding
# Settings in all cases: glycan notation: IUPAC condensed, linker removed
# [1] = biological target: Neu5Ac(a2-3)Gal(b1-4)GlcNAc(b1-6)GalNAc
# Method in brief: (§1)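 Arrays were curated from the Consortium for Functional Glycomics database, 3228 in total, and kept only where the protein sequence was available. Binding is expressed as a within-array Z-score. This score was averaged across arrays of the same protein sequence at different concentrations or buffers and across linkers, and negative values can be read as non-binding.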
# [2] = biological target: Neu5Ac(a2-3)Gal(b1-4)GlcNAc(b1-6)[Gal(b1-3)]GalNAc
# Method in brief: as §1
# [3] = biological target: Neu5Ac(a2-3)Gal(b1-4)GlcNAc(b1-6)[Neu5Ac(a2-3)Gal(b1-3)]GalNAc
# Method in brief: as §1
# [4] = biological target: Neu5Ac(a2-3)Gal(b1-4)GlcNAc6S
# Method in brief: as §1
# [5] = biological target: Neu5Ac(a2-3)Gal(b1-4)[Fuc(a1-3)]GlcNAc
# Method in brief: as §1
# [6] = biological target: Neu5Ac(a2-3)Gal(b1-4)[Fuc(a1-3)]GlcNAc(b1-2)Man
# Method in brief: as §1
# [7] = biological target: Neu5Ac(a2-3)Gal(b1-4)[Fuc(a1-3)]GlcNAc(b1-3)Gal
# Method in brief: as §1
# [8] = biological target: Neu5Ac(a2-3)Gal(b1-4)[Fuc(a1-3)]GlcNAc(b1-3)Gal(b1-4)GlcNAc
# Method in brief: as §1
# [9] = biological target: Neu5Ac(a2-3)Gal(b1-4)[Fuc(a1-3)]GlcNAc(b1-3)Gal(b1-4)[Fuc(a1-3)]GlcNAc(b1-3)Gal(b1-4)[Fuc(a1-3)]GlcNAc
# Method in brief: as §1
# [10] = biological target: Neu5Ac(a2-3)Gal(b1-4)[Fuc(a1-3)]GlcNAc(b1-3)GalNAc
# Method in brief: as §1
# [11] = biological target: Neu5Ac(a2-3)Gal(b1-4)[Fuc(a1-3)]GlcNAc(b1-6)[Gal(b1-3)]GalNAc
# Method in brief: as §1
# [12] = biological target: Neu5Ac(a2-3)Gal(b1-4)[Fuc(a1-3)]GlcNAc(b1-6)[Neu5Ac(a2-3)Gal(b1-3)]GalNAc
# Method in brief: as §1
# [13] = biological target: Neu5Ac(a2-3)Gal(b1-4)[Fuc(a1-3)]GlcNAc6S
# Method in brief: as §1
# [14] = biological target: Neu5Ac(a2-3)Gal6S(b1-4)GlcNAc
# Method in brief: as §1
# [15] = biological target: Neu5Ac(a2-3)Gal6S(b1-4)[Fuc(a1-3)]GlcNAc
# Method in brief: as §1
# Neu5Ac(a2-3)GalNAc = biological target: Neu5Ac(a2-3)GalNAc
# Method in brief: as §1
# [16] = biological target: Neu5Ac(a2-3)GalNAc(b1-4)GlcNAc
# Method in brief: as §1
# [17] = biological target: Neu5Ac(a2-3)[GalNAc(b1-4)]Gal(b1-4)Glc
# Method in brief: as §1
# [18] = biological target: Neu5Ac(a2-3)[GalNAc(b1-4)]Gal(b1-4)GlcNAc
# Method in brief: as §1
# [19] = biological target: Neu5Ac(a2-3)[GalNAc(b1-4)]Gal(b1-4)GlcNAc(b1-3)GalNAc
# Method in brief: as §1
# [20] = biological target: Neu5Ac(a2-3)[Neu5Ac(a2-6)]GalNAc
# Method in brief: as §1
# Neu5Ac(a2-6)Gal = biological target: Neu5Ac(a2-6)Gal
# Method in brief: as §1
# [21] = biological target: Neu5Ac(a2-6)Gal(b1-3)GlcNAc(b1-3)[Gal(b1-4)GlcNAc(b1-6)]Gal(b1-4)Glc
# Method in brief: as §1
# Neu5Ac(a2-6)Gal(b1-4)Glc = biological target: Neu5Ac(a2-6)Gal(b1-4)Glc
# Method in brief: as §1
# [22] = biological target: Neu5Ac(a2-6)Gal(b1-4)GlcNAc
# Method in brief: as §1
# [23] = biological target: Neu5Ac(a2-6)Gal(b1-4)GlcNAc(b1-2)Man
# Method in brief: as §1
# [24] = biological target: Neu5Ac(a2-6)Gal(b1-4)GlcNAc(b1-2)Man(a1-3)Man(b1-4)GlcNAc(b1-4)GlcNAc
# Method in brief: as §1
# [25] = biological target: Neu5Ac(a2-6)Gal(b1-4)GlcNAc(b1-2)Man(a1-3)[Gal(b1-4)GlcNAc(b1-2)Man(a1-6)]Man(b1-4)GlcNAc(b1-4)GlcNAc
# Method in brief: as §1
# [26] = biological target: Neu5Ac(a2-6)Gal(b1-4)GlcNAc(b1-2)Man(a1-3)[GlcNAc(b1-2)Man(a1-6)]Man(b1-4)GlcNAc(b1-4)GlcNAc
# Method in brief: as §1
# [27] = biological target: Neu5Ac(a2-6)Gal(b1-4)GlcNAc(b1-2)Man(a1-3)[GlcNAc(b1-4)][Neu5Ac(a2-6)Gal(b1-4)GlcNAc(b1-2)Man(a1-6)]Man(b1-4)GlcNAc(b1-4)GlcNAc
# Method in brief: as §1
binder,measurement,setting,value
B1,glycan array binding signal (z-score),[1],0.074
same,glycan array binding signal (z-score),[2],0.169
same,glycan array binding signal (z-score),[3],-0.869
same,glycan array binding signal (z-score),[4],-1.38
same,glycan array binding signal (z-score),[5],-0.479
same,glycan array binding signal (z-score),[6],-0.217
same,glycan array binding signal (z-score),[7],0.412
same,glycan array binding signal (z-score),[8],0.387
same,glycan array binding signal (z-score),[9],-0.603
same,glycan array binding signal (z-score),[10],-0.159
same,glycan array binding signal (z-score),[11],-0.493
same,glycan array binding signal (z-score),[12],-0.362
same,glycan array binding signal (z-score),[13],0.32
same,glycan array binding signal (z-score),[14],0.541
same,glycan array binding signal (z-score),[15],-1.52
same,glycan array binding signal (z-score),Neu5Ac(a2-3)GalNAc,-0.396
same,glycan array binding signal (z-score),[16],0.6
same,glycan array binding signal (z-score),[17],0.806
same,glycan array binding signal (z-score),[18],-0.217
same,glycan array binding signal (z-score),[19],0.647
same,glycan array binding signal (z-score),[20],1.23
same,glycan array binding signal (z-score),Neu5Ac(a2-6)Gal,0.031
same,glycan array binding signal (z-score),[21],-1.16
same,glycan array binding signal (z-score),Neu5Ac(a2-6)Gal(b1-4)Glc,-1.39
same,glycan array binding signal (z-score),[22],-1.2
same,glycan array binding signal (z-score),[23],-1
same,glycan array binding signal (z-score),[24],-0.919
same,glycan array binding signal (z-score),[25],1.82
same,glycan array binding signal (z-score),[26],0.097
same,glycan array binding signal (z-score),[27],0.574

# Pulled one by one from the entries so far, 2 records:
binder,measurement,setting,value
B1,glycan array binding signal (z-score),[9],-0.603
same,glycan array binding signal (z-score),[24],-0.919
